Source: patent US20250073165A1, “OLANZAPINE, COMPOSITIONS THEREOF AND METHODS OF USE THEREOF” (Teva Pharmaceuticals International GmbH, priority 2022, published 2025)

Assay: Filling of API in vials by auger filling: filling performance
Details: % of the maximum capacity of the machine

In order of rising Filling speed:
1. Cc1cc2c(s1)Nc1ccccc1N=C2N1CCN(C)CC1 [Batch S1-920, 2-methyl-4-(4-methyl-1-piperazinyl)-10H-thieno[2,3-b][1,5]benzodiazepine]  8%
2. Cc1cc2c(s1)Nc1ccccc1N=C2N1CCN(C)CC1 [Batch S3-020, 2-methyl-4-(4-methyl-1-piperazinyl)-10H-thieno[2,3-b][1,5]benzodiazepine]  12%
3. Cc1cc2c(s1)Nc1ccccc1N=C2N1CCN(C)CC1 [Batch M1-010, 2-methyl-4-(4-methyl-1-piperazinyl)-10H-thieno[2,3-b][1,5]benzodiazepine]  14%
4. Cc1cc2c(s1)Nc1ccccc1N=C2N1CCN(C)CC1 [Batch S1-220, 2-methyl-4-(4-methyl-1-piperazinyl)-10H-thieno[2,3-b][1,5]benzodiazepine]  14%
5. Cc1cc2c(s1)Nc1ccccc1N=C2N1CCN(C)CC1 [Batch M2-121, 2-methyl-4-(4-methyl-1-piperazinyl)-10H-thieno[2,3-b][1,5]benzodiazepine]  14%
6. Cc1cc2c(s1)Nc1ccccc1N=C2N1CCN(C)CC1 [Batch M6-020, 2-methyl-4-(4-methyl-1-piperazinyl)-10H-thieno[2,3-b][1,5]benzodiazepine]  16%
7. Cc1cc2c(s1)Nc1ccccc1N=C2N1CCN(C)CC1 [Batch M7-121, 2-methyl-4-(4-methyl-1-piperazinyl)-10H-thieno[2,3-b][1,5]benzodiazepine]  18%
8. Cc1cc2c(s1)Nc1ccccc1N=C2N1CCN(C)CC1 [Batch S3-221, 2-methyl-4-(4-methyl-1-piperazinyl)-10H-thieno[2,3-b][1,5]benzodiazepine]  18%
9. Cc1cc2c(s1)Nc1ccccc1N=C2N1CCN(C)CC1 [Batch S2-920, 2-methyl-4-(4-methyl-1-piperazinyl)-10H-thieno[2,3-b][1,5]benzodiazepine]  20%
